Results as given in publication PMC7862700.
The entries are a selection whose mix differs from that of the whole data set. At the low end of the ranking the order means little.

How the values were obtained:
Assay in all cases: DAPPL (digital affinity profiling via proximity ligation, sequencing)
Conditions in all cases: 10 mM Tris-HCl pH 7.5, 50 mM NaCl, 1 mM DTT, 4% glycerol, room temperature, 30 min; GST-TFs on glutathione beads, 16-mer random dsDNA library, 0.1% …; high values mean tight binding; double strand, one strand shown; scale: fold enrichment (6-mer frequency, TF over GST control)
ELK1 = molecular target: T1, ELK1 (UniProt P19419)
T1 sequence: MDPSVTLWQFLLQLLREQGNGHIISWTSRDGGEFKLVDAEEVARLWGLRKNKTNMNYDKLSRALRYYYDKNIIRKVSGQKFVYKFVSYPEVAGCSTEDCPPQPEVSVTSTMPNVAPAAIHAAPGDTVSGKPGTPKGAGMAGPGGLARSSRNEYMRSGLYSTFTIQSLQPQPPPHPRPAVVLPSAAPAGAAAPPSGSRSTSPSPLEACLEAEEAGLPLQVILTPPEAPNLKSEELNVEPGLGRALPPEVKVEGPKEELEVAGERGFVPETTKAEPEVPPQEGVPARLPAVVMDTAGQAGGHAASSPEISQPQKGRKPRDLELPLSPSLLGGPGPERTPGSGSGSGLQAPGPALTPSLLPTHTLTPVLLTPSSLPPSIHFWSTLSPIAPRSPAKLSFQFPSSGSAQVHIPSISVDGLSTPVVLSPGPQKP

ELK3 = molecular target: T2, ELK3 (UniProt P41970)
T2 sequence: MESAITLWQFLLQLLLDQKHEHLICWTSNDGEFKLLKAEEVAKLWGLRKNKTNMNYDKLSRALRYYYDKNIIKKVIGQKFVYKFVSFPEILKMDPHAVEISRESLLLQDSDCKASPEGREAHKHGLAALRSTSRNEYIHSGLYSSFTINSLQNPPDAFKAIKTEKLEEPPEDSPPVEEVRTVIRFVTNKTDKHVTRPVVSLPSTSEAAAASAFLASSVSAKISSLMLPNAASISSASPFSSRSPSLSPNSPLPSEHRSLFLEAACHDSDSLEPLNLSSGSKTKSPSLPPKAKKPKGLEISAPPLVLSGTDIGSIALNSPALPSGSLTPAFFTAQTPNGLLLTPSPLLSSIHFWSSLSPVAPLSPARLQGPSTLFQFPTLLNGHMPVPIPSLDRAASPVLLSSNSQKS

SPIC = molecular target: T3, SPIC (UniProt Q8N5J4)
T3 sequence: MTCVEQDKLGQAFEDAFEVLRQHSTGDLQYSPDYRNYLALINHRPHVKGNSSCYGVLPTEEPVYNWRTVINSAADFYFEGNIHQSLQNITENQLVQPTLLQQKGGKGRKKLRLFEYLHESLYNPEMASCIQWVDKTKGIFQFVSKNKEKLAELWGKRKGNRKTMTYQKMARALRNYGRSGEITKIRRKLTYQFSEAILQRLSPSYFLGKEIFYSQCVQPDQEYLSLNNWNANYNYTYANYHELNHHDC

ETS2 = molecular target: T4, ETS2 (UniProt P15036)
T4 sequence: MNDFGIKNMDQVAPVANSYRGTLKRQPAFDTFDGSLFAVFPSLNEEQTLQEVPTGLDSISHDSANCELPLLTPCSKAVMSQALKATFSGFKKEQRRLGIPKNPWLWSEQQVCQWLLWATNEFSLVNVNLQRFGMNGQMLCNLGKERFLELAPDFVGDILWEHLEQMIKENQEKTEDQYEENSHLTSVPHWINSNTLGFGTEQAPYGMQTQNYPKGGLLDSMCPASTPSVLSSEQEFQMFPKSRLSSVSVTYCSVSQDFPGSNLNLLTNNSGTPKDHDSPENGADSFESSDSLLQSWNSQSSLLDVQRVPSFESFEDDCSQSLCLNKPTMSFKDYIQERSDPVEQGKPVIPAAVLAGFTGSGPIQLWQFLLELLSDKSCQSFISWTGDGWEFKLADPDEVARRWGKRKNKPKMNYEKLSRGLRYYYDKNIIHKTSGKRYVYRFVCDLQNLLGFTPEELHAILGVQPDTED

ETV3 = molecular target: T5, ETV3 (UniProt P41162-2)
T5 sequence: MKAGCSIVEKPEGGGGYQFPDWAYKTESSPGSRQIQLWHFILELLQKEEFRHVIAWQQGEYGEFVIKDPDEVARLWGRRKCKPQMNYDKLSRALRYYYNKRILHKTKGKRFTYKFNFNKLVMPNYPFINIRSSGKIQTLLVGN

Sequence | binding signal (ELK1) | binding signal (ELK3) | binding signal (SPIC) | binding signal (ETS2) | binding signal (ETV3)
AGACAT | 0.818 | 0.815 | 0.87 | 0.811 | 0.84
GGTGCA | 0.833 | 0.813 | 0.728 | 0.824 | 0.949
TCGCAG | 0.907 | 0.915 | 0.864 | 0.905 | 0.913
AAGAGT | 0.947 | 0.821 | 0.686 | 0.951 | 0.852
GACGGG | 0.388 | 0.459 | 0.451 | 0.434 | 0.424
CGGGTC | 0.668 | 0.66 | 0.715 | 0.721 | 0.752
TTAGAC | 0.829 | 0.758 | 0.794 | 0.763 | 0.777
AACCGT | 0.517 | 0.604 | 0.494 | 0.543 | 0.569
AGCGCG | 0.807 | 0.764 | 0.94 | 0.797 | 0.754
GGAGAT | 0.295 | 0.28 | 0.357 | 0.303 | 0.307
TCGGAG | 0.194 | 0.195 | 0.204 | 0.19 | 0.179
ACGGTG | 0.587 | 0.544 | 0.532 | 0.561 | 0.554
GGGAGC | 0.404 | 0.388 | 0.411 | 0.394 | 0.397
AGTCAC | 0.77 | 0.741 | 0.703 | 0.756 | 0.754
GTAAAG | 0.934 | 0.997 | 0.911 | 0.951 | 0.947
AGGCCT | 0.964 | 1.01 | 0.943 | 0.998 | 0.893
GCCAAA | 0.87 | 0.84 | 0.98 | 0.94 | 0.872
ACAGAG | 0.712 | 0.648 | 0.739 | 0.709 | 0.708
CGGGAT | 0.635 | 0.721 | 0.65 | 0.63 | 0.624
TAGACC | 0.852 | 0.803 | 0.793 | 0.814 | 0.801

Sequence | binding signal (ELK1) | binding signal (ELK3) | binding signal (SPIC) | binding signal (ETS2) | binding signal (ETV3)
GGCAAA | 0.924 | 0.926 | 0.894 | 0.928 | 0.879
GGTCGT | 0.568 | 0.596 | 0.537 | 0.645 | 0.666
GCGGGT | 0.575 | 0.581 | 0.601 | 0.613 | 0.618
GAGTTG | 0.525 | 0.522 | 0.44 | 0.468 | 0.494
AGTCGT | 0.411 | 0.426 | 0.393 | 0.427 | 0.405
GAGACC | 0.256 | 0.214 | 0.2 | 0.231 | 0.218
CAAGCG | 0.881 | 0.904 | 0.816 | 0.933 | 0.931
AGATTG | 0.885 | 0.891 | 0.856 | 0.801 | 0.769
GCACCA | 0.855 | 0.952 | 0.977 | 0.807 | 0.837
GGTCGC | 0.871 | 0.849 | 0.908 | 0.843 | 0.872
GTGATC | 0.81 | 0.832 | 0.699 | 0.859 | 0.805
CAGCAG | 0.784 | 0.776 | 0.98 | 0.886 | 0.849
GCCAGG | 0.43 | 0.448 | 0.421 | 0.428 | 0.462
CGTGCG | 0.584 | 0.541 | 0.529 | 0.614 | 0.714
ACAGCG | 0.76 | 0.858 | 0.741 | 0.849 | 0.754
GTGCAG | 0.742 | 0.743 | 0.833 | 0.813 | 0.786
GGAGCA | 0.468 | 0.452 | 0.443 | 0.434 | 0.439
AGGGGC | 0.839 | 0.814 | 0.703 | 0.785 | 0.741
CCGTAG | 0.879 | 1.02 | 0.904 | 0.796 | 0.876
AGGGCG | 0.599 | 0.607 | 0.645 | 0.568 | 0.547

Sequence | binding signal (ELK1) | binding signal (ELK3) | binding signal (SPIC) | binding signal (ETS2) | binding signal (ETV3)
GTGACA | 0.794 | 0.769 | 0.736 | 0.809 | 0.757
AGGATC | 0.906 | 0.917 | 0.877 | 0.876 | 0.808
CTGGGA | 0.779 | 0.858 | 0.814 | 0.747 | 0.806
CCGTGC | 0.593 | 0.616 | 0.635 | 0.581 | 0.583
ACCAGG | 0.777 | 0.73 | 0.758 | 0.758 | 0.785
GTCGGG | 0.246 | 0.246 | 0.241 | 0.22 | 0.229
AGGACG | 0.43 | 0.501 | 0.483 | 0.495 | 0.489
ACGAGG | 0.753 | 0.715 | 0.744 | 0.825 | 0.755
GTCTGC | 0.999 | 0.837 | 0.793 | 0.944 | 0.813
GACCCT | 0.889 | 0.988 | 0.888 | 0.836 | 0.903
GCCGTT | 0.8 | 0.777 | 0.77 | 0.754 | 0.805
GTAGGG | 0.731 | 0.624 | 0.782 | 0.695 | 0.718
CACAGG | 0.911 | 0.874 | 0.807 | 0.912 | 0.907
CAGGGT | 0.875 | 0.751 | 0.763 | 0.859 | 0.79
CAAGGC | 0.923 | 0.93 | 0.878 | 0.829 | 0.971
TGAGTC | 0.207 | 0.178 | 0.212 | 0.196 | 0.212
AGTTCG | 0.711 | 0.832 | 0.931 | 0.736 | 0.729
ACGCAA | 0.946 | 0.966 | 0.897 | 0.97 | 0.929
CGAGGA | 0.686 | 0.675 | 0.676 | 0.66 | 0.651
CGCCAG | 0.632 | 0.674 | 0.63 | 0.623 | 0.639

Reformatted in CSV form: entries from further up.
Sequence,binding signal (ELK1),binding signal (ELK3),binding signal (SPIC),binding signal (ETS2),binding signal (ETV3)
AGTCGT,0.411,0.426,0.393,0.427,0.405
ACAGCG,0.76,0.858,0.741,0.849,0.754
AGGGGC,0.839,0.814,0.703,0.785,0.741
